Measured values taken from patent publication US20260217701A1, “SELECTIVE BET INHIBITORS AND USES THEREOF” (Tay Therapeutics Limited, priority 2022, published 2026).
Several values for one entry are separate records, joined by “and”; a condition that tells them apart may be missing. Equal entries are not always repeated. This continues a long series; more values of the same kind are listed elsewhere.

Tested on: collagen-induced arthritis
Experiment: Collagen-induced arthritis (CIA) model: clinical scores and paw volume; for Animal paw volume percent change (%): reference of the scale not given here
Type: in vivo, Lewis rats
Settings: for Animal paw volume percent change (%) / clinical score (score, all limbs) / clinical score left forelimb / clinical score left hind limb / clinical score right forelimb / clinical score right hind limb / Animal paw volume: individual animals; for Overall Clinical Score: individual animals 1-8; for clinical score (score, all limbs) / clinical score left forelimb / clinical score left hind limb / clinical score right forelimb / clinical score right hind limb: CIA

Cn1cc(-c2ccccc2)c(-c2cn(C)c(=O)c3[nH]c(-c4cnn(C(F)(F)F)c4)cc23)cc1=O [Compound A, 6-methyl-4-(1-methyl-2-oxo-5-phenyl-1,2-dihydropyridin-4-yl)-2-(1-(trifluoromethyl)-1H-pyrazol-4-yl)-1,6-dihydro-7H-pyrrolo[2,3-c]pyridin-7-one]
Animal paw volume percent change (%) (Day 0, L paw, group 5 CIA + Compound A 1 mg/kg): 0.00%
Animal paw volume percent change (%) (Day 0, L paw, group 6 CIA + Compound A 3 mg/kg): 0.00%
Animal paw volume percent change (%) (Day 0, L paw, group 7 CIA + Compound A 10 mg/kg): 0.00%
Animal paw volume percent change (%) (Day 0, R paw, group 5 CIA + Compound A 1 mg/kg): 0.00%
Animal paw volume percent change (%) (Day 0, R paw, group 6 CIA + Compound A 3 mg/kg): 0.00%
Animal paw volume percent change (%) (Day 0, R paw, group 7 CIA + Compound A 10 mg/kg): 0.00%
Overall Clinical Score (Day 0, CIA + Compound A 10 mg/kg): 0
clinical score (score, all limbs) (Day 0, 1 mg/kg): 0
clinical score left forelimb (Day 0, 1 mg/kg): 0
clinical score left hind limb (Day 0, 1 mg/kg): 0
clinical score right forelimb (Day 0, 1 mg/kg): 0
clinical score right hind limb (Day 0, 1 mg/kg): 0
clinical score (score, all limbs) (Day 0, 3 mg/kg): 0
clinical score left forelimb (Day 0, 3 mg/kg): 0
clinical score left hind limb (Day 0, 3 mg/kg): 0
clinical score right forelimb (Day 0, 3 mg/kg): 0
clinical score right hind limb (Day 0, 3 mg/kg): 0
clinical score (score, all limbs) (Day 0, 10 mg/kg): 0
clinical score left forelimb (Day 0, 10 mg/kg): 0
clinical score left hind limb (Day 0, 10 mg/kg): 0
clinical score right forelimb (Day 0, 10 mg/kg): 0
clinical score right hind limb (Day 0, 10 mg/kg): 0
Animal paw volume (Day 0, L paw, Group 5 (CIA + Compound A 1 mg/kg), 1 mg/kg): 1.35 mL and 1.31 mL and 1.29 mL and 1.36 mL and 1.33 mL (3×) and 1.34 mL
Animal paw volume (Day 0, L paw, Group 6 (CIA + Compound A 3 mg/kg), 3 mg/kg): 1.32 mL (2×) and 1.29 mL and 1.37 mL and 1.31 mL (3×) and 1.34 mL
Animal paw volume (Day 0, L paw, Group 7 (CIA + Compound A 10 mg/kg), 10 mg/kg): 1.31 mL (2×) and 1.29 mL (2×) and 1.33 mL (2×) and 1.35 mL (2×)
Animal paw volume (Day 0, R paw, Group 5 (CIA + Compound A 1 mg/kg), 1 mg/kg): 1.35 mL and 1.31 mL and 1.30 mL and 1.38 mL and 1.33 mL (2×) and 1.36 mL and 1.32 mL
Animal paw volume (Day 0, R paw, Group 6 (CIA + Compound A 3 mg/kg), 3 mg/kg): 1.33 mL (2×) and 1.29 mL and 1.35 mL and 1.30 mL (2×) and 1.34 mL and 1.31 mL
Animal paw volume (Day 0, R paw, Group 7 (CIA + Compound A 10 mg/kg), 10 mg/kg): 1.31 mL and 1.29 mL (2×) and 1.32 mL and 1.34 mL (3×) and 1.30 mL
Animal paw volume percent change (%) (Day 6, L paw, group 5 CIA + Compound A 1 mg/kg, 1 mg/kg): 0.74% and 1.53% and 0.39% and 2.95% and 1.51% (2×) and 2.25% and 1.89%
Animal paw volume percent change (%) (Day 6, L paw, group 6 CIA + Compound A 3 mg/kg, 3 mg/kg): 0.00% (2×) and 4.67% and 1.90% and 0.77% and 1.50% and 1.15% and 1.53%
Animal paw volume percent change (%) (Day 6, L paw, group 7 CIA + Compound A 10 mg/kg, 10 mg/kg): 1.15% and 0.00% (2×) and 3.02% (2×) and 3.72% and 1.49% and 0.77%
Animal paw volume percent change (%) (Day 6, R paw, group 5 CIA + Compound A 1 mg/kg, 1 mg/kg): 0.74% (2×) and 1.53% and 0.00% and 2.18% and 1.51% and 2.28% and 2.26%
Animal paw volume percent change (%) (Day 6, R paw, group 6 CIA + Compound A 3 mg/kg, 3 mg/kg): 0.00% (2×) and 3.89% and 2.26% and 2.32% (2×) and 0.75% and 1.53%
Animal paw volume percent change (%) (Day 6, R paw, group 7 CIA + Compound A 10 mg/kg, 10 mg/kg): 0.00% (4×) and 3.79% and 4.10% and 2.24% and 2.62%
Overall Clinical Score (Day 6, CIA + Compound A 10 mg/kg): 0
clinical score (score, all limbs) (Day 6, 1 mg/kg): 0
clinical score left forelimb (Day 6, 1 mg/kg): 0
clinical score left hind limb (Day 6, 1 mg/kg): 0
clinical score right forelimb (Day 6, 1 mg/kg): 0
clinical score right hind limb (Day 6, 1 mg/kg): 0
clinical score (score, all limbs) (Day 6, 3 mg/kg): 0
clinical score left forelimb (Day 6, 3 mg/kg): 0
clinical score left hind limb (Day 6, 3 mg/kg): 0
clinical score right forelimb (Day 6, 3 mg/kg): 0
clinical score right hind limb (Day 6, 3 mg/kg): 0
clinical score (score, all limbs) (Day 6, 10 mg/kg): 0
clinical score left forelimb (Day 6, 10 mg/kg): 0
clinical score left hind limb (Day 6, 10 mg/kg): 0
clinical score right forelimb (Day 6, 10 mg/kg): 0
clinical score right hind limb (Day 6, 10 mg/kg): 0
Animal paw volume (Day 6, L paw, Group 5 (CIA + Compound A 1 mg/kg), 1 mg/kg): 1.36 mL and 1.33 mL and 1.30 mL and 1.40 mL and 1.35 mL (3×) and 1.37 mL
Animal paw volume (Day 6, L paw, Group 6 (CIA + Compound A 3 mg/kg), 3 mg/kg): 1.32 mL (2×) and 1.35 mL and 1.34 mL and 1.37 mL and 1.36 mL and 1.33 mL (2×)
Animal paw volume (Day 6, L paw, Group 7 (CIA + Compound A 10 mg/kg), 10 mg/kg): 1.32 mL (2×) and 1.29 mL (2×) and 1.37 mL (3×) and 1.40 mL
Animal paw volume (Day 6, R paw, Group 5 (CIA + Compound A 1 mg/kg), 1 mg/kg): 1.36 mL (2×) and 1.33 mL and 1.30 mL and 1.41 mL and 1.35 mL (2×) and 1.37 mL
Animal paw volume (Day 6, R paw, Group 6 (CIA + Compound A 3 mg/kg), 3 mg/kg): 1.33 mL (4×) and 1.34 mL and 1.36 mL and 1.35 mL (2×)
Animal paw volume (Day 6, R paw, Group 7 (CIA + Compound A 10 mg/kg), 10 mg/kg): 1.31 mL and 1.29 mL (2×) and 1.37 mL (3×) and 1.40 mL and 1.30 mL
Animal paw volume percent change (%) (Day 12, L paw, group 5 CIA + Compound A 1 mg/kg, 1 mg/kg): 2.97% and 4.21% and 2.71% and 5.17% and 8.30% and 4.49% and 3.02% (2×)
Animal paw volume percent change (%) (Day 12, L paw, group 6 CIA + Compound A 3 mg/kg, 3 mg/kg): 0.76% and 5.45% and 2.28% and 1.47% and 3.07% and 2.25% and 3.44% and 16.09%
Animal paw volume percent change (%) (Day 12, L paw, group 7 CIA + Compound A 10 mg/kg, 10 mg/kg): 4.60% and 3.11% and 3.77% and 4.46% and 2.23% and 3.02% and 1.56% and 3.83%
Animal paw volume percent change (%) (Day 12, R paw, group 5 CIA + Compound A 1 mg/kg, 1 mg/kg): 2.23% and 3.45% and 3.09% and 4.36% and 18.11% and 5.17% and 3.04% and 12.08%
Animal paw volume percent change (%) (Day 12, R paw, group 6 CIA + Compound A 3 mg/kg, 3 mg/kg): 2.26% (2×) and 5.84% and 2.23% and 3.86% and 1.50% and 2.30% and 7.72%
Animal paw volume percent change (%) (Day 12, R paw, group 7 CIA + Compound A 10 mg/kg, 10 mg/kg): 2.30% and 3.11% and 5.68% and 3.36% and 12.31% and 2.25% and 2.33% and 3.86%
Overall Clinical Score (Day 12, CIA + Compound A 3 mg/kg, 3 mg/kg): 1
Overall Clinical Score (Day 12, CIA + Compound A 10 mg/kg, 10 mg/kg): 0 (7×) and 2
clinical score left forelimb (Day 12, 1 mg/kg): 0
clinical score left hind limb (Day 12, 1 mg/kg): 0
clinical score right forelimb (Day 12, 1 mg/kg): 0
clinical score (score, all limbs) (Day 12, 1 mg/kg, 1 mg/kg): 0 (7×) and 1
clinical score right hind limb (Day 12, 1 mg/kg, 1 mg/kg): 0 (7×) and 1
clinical score left forelimb (Day 12, 3 mg/kg): 0
clinical score right forelimb (Day 12, 3 mg/kg): 0
clinical score right hind limb (Day 12, 3 mg/kg): 0
clinical score (score, all limbs) (Day 12, 3 mg/kg, 3 mg/kg): 0 (7×) and 1
clinical score left hind limb (Day 12, 3 mg/kg, 3 mg/kg): 0 (7×) and 1
clinical score left forelimb (Day 12, 10 mg/kg): 0
clinical score left hind limb (Day 12, 10 mg/kg): 0
clinical score (score, all limbs) (Day 12, 10 mg/kg, 10 mg/kg): 0 (7×) and 2
clinical score right forelimb (Day 12, 10 mg/kg, 10 mg/kg): 0 (7×) and 1
clinical score right hind limb (Day 12, 10 mg/kg, 10 mg/kg): 0 (7×) and 1
Animal paw volume (Day 12, L paw, Group 5 (CIA + Compound A 1 mg/kg), 1 mg/kg): 1.39 mL and 1.36 mL and 1.33 mL and 1.43 mL and 1.44 mL and 1.40 mL and 1.37 mL (2×)
Animal paw volume (Day 12, L paw, Group 6 (CIA + Compound A 3 mg/kg), 3 mg/kg): 1.33 mL and 1.36 mL (2×) and 1.35 mL (2×) and 1.39 mL and 1.37 mL and 1.52 mL
Animal paw volume (Day 12, L paw, Group 7 (CIA + Compound A 10 mg/kg), 10 mg/kg): 1.37 mL (2×) and 1.33 mL and 1.38 mL (2×) and 1.41 mL and 1.31 mL and 1.36 mL
Animal paw volume (Day 12, R paw, Group 5 (CIA + Compound A 1 mg/kg), 1 mg/kg): 1.38 mL and 1.35 mL and 1.34 mL and 1.44 mL and 1.57 mL and 1.43 mL and 1.36 mL and 1.49 mL
Animal paw volume (Day 12, R paw, Group 6 (CIA + Compound A 3 mg/kg), 3 mg/kg): 1.36 mL (4×) and 1.38 mL and 1.35 mL and 1.34 mL and 1.40 mL
Animal paw volume (Day 12, R paw, Group 7 (CIA + Compound A 10 mg/kg), 10 mg/kg): 1.34 mL and 1.33 mL and 1.40 mL and 1.39 mL and 1.51 mL and 1.37 mL and 1.32 mL and 1.35 mL
Animal paw volume percent change (%) (Day 13, L paw, group 5 CIA + Compound A 1 mg/kg, 1 mg/kg): 4.83% and 6.13% and 4.26% and 5.17% and 18.11% and 6.74% and 7.55% and 6.79%
Animal paw volume percent change (%) (Day 13, L paw, group 6 CIA + Compound A 3 mg/kg, 3 mg/kg): 2.28% (2×) and 8.56% and 2.20% and 8.43% and 3.75% and 6.49% and 18.39%
Animal paw volume percent change (%) (Day 13, L paw, group 7 CIA + Compound A 10 mg/kg, 10 mg/kg): 4.60% and 5.45% and 7.55% and 4.46% and 23.42% and 4.53% and 2.33% and 5.36%
Animal paw volume percent change (%) (Day 13, R paw, group 5 CIA + Compound A 1 mg/kg, 1 mg/kg): 3.72% and 5.36% and 4.63% and 4.36% and 18.87% and 5.90% and 3.80% and 14.34%
Animal paw volume percent change (%) (Day 13, R paw, group 6 CIA + Compound A 3 mg/kg, 3 mg/kg): 3.02% (2×) and 5.84% and 5.95% and 4.63% and 3.75% and 5.36% and 18.53%
Animal paw volume percent change (%) (Day 13, R paw, group 7 CIA + Compound A 10 mg/kg, 10 mg/kg): 2.30% and 3.89% and 6.44% and 19.03% and 16.04% and 2.25% and 4.67% and 4.63%
Overall Clinical Score (Day 13, CIA + Compound A 3 mg/kg, 3 mg/kg): 2
Overall Clinical Score (Day 13, CIA + Compound A 10 mg/kg, 10 mg/kg): 0 (6×) and 1 and 3
Animal paw volume (Day 13, L paw, Group 5 (CIA + Compound A 1 mg/kg), 1 mg/kg): 1.41 mL and 1.39 mL and 1.35 mL and 1.43 mL (3×) and 1.57 mL and 1.42 mL
Animal paw volume (Day 13, L paw, Group 6 (CIA + Compound A 3 mg/kg), 3 mg/kg): 1.35 mL (2×) and 1.40 mL (3×) and 1.42 mL and 1.39 mL and 1.55 mL
